Laboratory results from publication PMC5261807 (2017).
These are yes or no findings as the source states them, for the method shown. Binding seen in cells or lysates may run through a third protein. These calls come from enrichment with a bait or labelling near it, and not all partners need be listed. For part of these data: A no says only that the protein was not detected with the bait. Tags and fused reporters may be left off the sequences shown. Values belong to the binder of their own block, whether it stands above or below them.

Protein sequences, listed by entry. Tags and fused reporters are not part of them.
UniProt Q05471: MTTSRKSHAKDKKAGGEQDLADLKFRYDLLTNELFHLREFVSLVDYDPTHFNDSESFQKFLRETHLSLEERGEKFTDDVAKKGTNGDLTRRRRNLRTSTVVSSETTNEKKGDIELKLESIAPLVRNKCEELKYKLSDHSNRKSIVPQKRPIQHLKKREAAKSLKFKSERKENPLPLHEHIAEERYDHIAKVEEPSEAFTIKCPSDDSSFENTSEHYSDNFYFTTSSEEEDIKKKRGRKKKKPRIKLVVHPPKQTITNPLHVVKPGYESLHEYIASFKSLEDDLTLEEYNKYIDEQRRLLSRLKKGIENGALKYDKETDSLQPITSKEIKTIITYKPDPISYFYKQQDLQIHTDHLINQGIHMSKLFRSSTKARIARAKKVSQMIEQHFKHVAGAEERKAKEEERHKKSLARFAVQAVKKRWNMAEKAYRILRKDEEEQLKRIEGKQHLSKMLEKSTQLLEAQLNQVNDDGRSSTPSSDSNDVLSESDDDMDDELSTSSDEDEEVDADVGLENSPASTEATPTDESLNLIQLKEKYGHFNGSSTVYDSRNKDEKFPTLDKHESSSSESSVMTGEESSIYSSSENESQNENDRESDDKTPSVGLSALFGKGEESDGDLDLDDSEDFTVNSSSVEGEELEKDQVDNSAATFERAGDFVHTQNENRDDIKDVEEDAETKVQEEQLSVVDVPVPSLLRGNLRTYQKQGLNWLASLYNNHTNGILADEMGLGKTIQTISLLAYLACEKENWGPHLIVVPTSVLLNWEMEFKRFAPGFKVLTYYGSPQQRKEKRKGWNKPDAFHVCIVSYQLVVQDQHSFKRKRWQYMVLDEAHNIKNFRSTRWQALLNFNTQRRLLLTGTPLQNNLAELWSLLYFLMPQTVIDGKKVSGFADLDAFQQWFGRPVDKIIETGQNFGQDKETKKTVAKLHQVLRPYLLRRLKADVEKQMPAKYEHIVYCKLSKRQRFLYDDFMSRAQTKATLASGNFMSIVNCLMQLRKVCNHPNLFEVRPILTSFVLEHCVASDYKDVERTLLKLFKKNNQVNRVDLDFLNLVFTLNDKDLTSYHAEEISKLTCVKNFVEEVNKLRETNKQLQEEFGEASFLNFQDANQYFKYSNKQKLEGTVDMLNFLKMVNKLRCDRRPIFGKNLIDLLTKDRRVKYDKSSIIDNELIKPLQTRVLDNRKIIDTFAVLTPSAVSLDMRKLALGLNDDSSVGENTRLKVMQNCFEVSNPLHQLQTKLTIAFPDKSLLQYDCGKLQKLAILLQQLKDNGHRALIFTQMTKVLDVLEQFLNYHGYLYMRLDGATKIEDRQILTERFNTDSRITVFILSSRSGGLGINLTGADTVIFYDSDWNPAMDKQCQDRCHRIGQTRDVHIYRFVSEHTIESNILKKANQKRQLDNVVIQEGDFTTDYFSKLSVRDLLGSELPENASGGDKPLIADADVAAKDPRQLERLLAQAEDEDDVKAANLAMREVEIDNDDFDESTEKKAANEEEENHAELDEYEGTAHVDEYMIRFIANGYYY

What was measured:
Assay in all cases: affinity purification with mass spectrometry; tandem affinity purification from vegetative cells (Bdf1-TAP, Bdf2-TAP, Swr1-TAP), calmodulin eluates, nanoLC-MS/MS, iBAQ; Bdf2 also found with Bdf1-TAP in the yaf9Δ strain
Bdf2-TAP (S. cerevisiae) = target: T1, Bdf2-TAP (S. cerevisiae) (UniProt Q07442)
T1 sequence: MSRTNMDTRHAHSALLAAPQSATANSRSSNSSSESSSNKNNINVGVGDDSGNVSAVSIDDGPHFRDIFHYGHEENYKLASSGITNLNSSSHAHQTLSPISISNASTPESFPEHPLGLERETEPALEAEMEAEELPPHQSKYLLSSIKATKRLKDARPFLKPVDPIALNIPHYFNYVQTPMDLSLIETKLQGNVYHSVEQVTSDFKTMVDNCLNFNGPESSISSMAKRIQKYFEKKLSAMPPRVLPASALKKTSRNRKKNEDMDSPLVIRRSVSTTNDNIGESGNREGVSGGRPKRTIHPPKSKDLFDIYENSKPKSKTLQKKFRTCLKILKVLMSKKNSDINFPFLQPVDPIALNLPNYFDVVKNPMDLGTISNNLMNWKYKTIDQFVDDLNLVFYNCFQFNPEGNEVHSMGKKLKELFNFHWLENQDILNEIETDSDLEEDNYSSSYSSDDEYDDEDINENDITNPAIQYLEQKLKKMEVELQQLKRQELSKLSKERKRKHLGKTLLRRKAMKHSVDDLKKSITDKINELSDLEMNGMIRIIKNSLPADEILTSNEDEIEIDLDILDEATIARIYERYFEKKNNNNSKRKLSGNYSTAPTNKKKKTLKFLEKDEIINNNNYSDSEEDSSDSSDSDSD

Swr1-TAP (S. cerevisiae) = Swr1-TAP (S. cerevisiae) (UniProt Q05471)
Bdf1-TAP (S. cerevisiae) = target: T2, Bdf1-TAP (S. cerevisiae) (UniProt P35817)
T2 sequence: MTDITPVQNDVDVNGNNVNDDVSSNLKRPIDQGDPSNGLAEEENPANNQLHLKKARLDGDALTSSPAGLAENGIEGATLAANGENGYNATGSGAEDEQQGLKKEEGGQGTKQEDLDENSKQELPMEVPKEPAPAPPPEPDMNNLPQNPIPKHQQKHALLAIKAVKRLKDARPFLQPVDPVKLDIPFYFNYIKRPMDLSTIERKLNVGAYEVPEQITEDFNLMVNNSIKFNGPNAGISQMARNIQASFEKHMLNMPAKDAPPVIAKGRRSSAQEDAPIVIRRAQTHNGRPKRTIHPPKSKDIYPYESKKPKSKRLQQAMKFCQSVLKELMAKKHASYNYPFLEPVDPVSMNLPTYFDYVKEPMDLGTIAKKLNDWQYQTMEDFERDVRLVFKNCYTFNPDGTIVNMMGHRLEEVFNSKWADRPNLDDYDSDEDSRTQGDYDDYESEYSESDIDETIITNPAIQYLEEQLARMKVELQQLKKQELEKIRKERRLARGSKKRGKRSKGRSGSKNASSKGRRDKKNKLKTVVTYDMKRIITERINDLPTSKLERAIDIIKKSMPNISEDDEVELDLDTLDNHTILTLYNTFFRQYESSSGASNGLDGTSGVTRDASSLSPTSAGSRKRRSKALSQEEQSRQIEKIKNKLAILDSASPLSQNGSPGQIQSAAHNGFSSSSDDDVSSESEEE

binding (Bdf2-TAP (S. cerevisiae)): binds
B1: Bdf1 (wild-type, untagged) (protein, UniProt P35817 1-686)
chain: T2 sequence

binding (Swr1-TAP (S. cerevisiae)): no binding
binding (Bdf1-TAP (S. cerevisiae)): binds
B2: Bdf2 (untagged) (protein, UniProt Q07442 1-638)
chain: T1 sequence
